In the supplement of paper PMC4749390:
Where a name gives a salt, the structure may show the parent alone. The list shows a part of the results. Single values are uncertain here, since repeats match poorly.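 Wild-type human LRH-1, a heavily sumoylated nuclear receptor, is tetracycline-inducible in stable JEG3 cells. RT-qPCR measured SUMO-sensitive APOC3 and MUC1 transcripts, which rise with SUMO-less LRH-1 or UBC9 knockdown, versus TBP and DMSO controls. Robust Z-scores beyond ±2 flagged primary hits, followed by toxicity and TBP filtering.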

Test system: JEG3 expressing hLRH-1
Assay: APOC3 transcript change (ddCt vs TBP and DMSO), Z-score over library; higher = higher APOC3 expression
Settings: 10 µM; time (hr): 24

Point of comparison: `COc1c(N2CCNC(C)C2)c(F)cc2c(=O)c(C(=O)O)cn(C3CC3)c12` (stereo not drawn) [gatifloxacin], “APOC3 transcript change (Z-score)” value 0.356. Against it:
- O=C(O)Cc1ccc(-c2ccccc2)cc1 [felbinac] — lower, 0.00124
- CCN1CCC(CNC(=O)c2cc(S(N)(=O)=O)ccc2OC)C1 (stereo not drawn) [sulpiride] — lower, 0.283
- NS(=O)(=O)c1cc(C2(O)NC(=O)c3ccccc32)ccc1Cl (stereo not drawn) [chlorthalidone] — lower, -0.52
- CO/N=C(\C(=O)N[C@@H]1C(=O)N2C(C(=O)OC(C)OC(C)=O)=C(COC(N)=O)CS[C@H]12)c1ccco1 (stereo partly drawn) [cefuroxime axetil] — lower, -0.0532
- COc1ccc(CCN(C)CCCC(C#N)(c2ccc(OC)c(OC)c2)C(C)C)cc1OC (racemic) [(±)-Verapamil hydrochloride] — lower, -0.2
- Cn1c(=O)c2c(ncn2C)n(C)c1=O [Caffeine] — lower, -1
- COc1ccc(Cl)cc1C(=O)NCCc1ccc(S(=O)(=O)NC(=O)NC2CCCCC2)cc1 [Glibenclamide] — lower, -0.591
- COc1cc2c3cc1Oc1cc(ccc1O)C[C@@H]1c4c(cc(OC)c(O)c4Oc4ccc(cc4)C[C@@H]3N(C)CC2)CC[N+]1(C)C [tubocurarine chloride] — higher, 0.934
- CC1(C)[C@@H](OC(=O)CCC(=O)O)CC[C@]2(C)[C@H]3C(=O)C=C4[C@@H]5C[C@@](C)(C(=O)O)CC[C@]5(C)CC[C@@]4(C)[C@]3(C)CC[C@@H]12 [carbenoxolone sodium] — lower, -1.04
- CC(C)CCCC(C)NC(C)C (stereo not drawn) [iproheptine] — higher, 0.55
- CC(=O)OCC(=O)[C@H]1CC[C@H]2[C@@H]3CCC4=CC(=O)CC[C@]4(C)[C@H]3CC[C@]12C [desoxycorticosterone acetate] — lower, 0.298
- O=C(O)C1CSCN1 (stereo not drawn) [timonacic] — higher, 0.416
- CCN(CC)CCOc1ccc(/C(=C(\Cl)c2ccccc2)c2ccccc2)cc1 [clomiphene citrate] — lower, -0.321
- CCN(CC)CCOCCOC(=O)C(CC)(CC)c1ccccc1 [oxelaidin citrate] — lower, -1.05
- CC(=O)OCC(=O)[C@@]1(OC(C)=O)[C@@H](C)C[C@H]2[C@@H]3C[C@H](F)C4=CC(=O)C=C[C@]4(C)[C@@]3(F)[C@@H](O)C[C@@]21C [diflorasone diacetate] — higher, 0.48
- CC[C@@H](CO)NCCN[C@@H](CC)CO [ethambutol hydrochloride] — higher, 0.515
- C[C@]1(Cn2ccnn2)[C@H](C(=O)O)N2C(=O)C[C@H]2S1(=O)=O [tazobactam] — higher, 0.524
- CCCCc1oc2ccccc2c1C(=O)c1cc(I)c(OCCN(CC)CC)c(I)c1 [Amiodarone hydrochloride] — higher, 0.866
- Cc1c(O)c(=O)ccn1C [deferiprone] — lower, -0.63
- CC(C(=O)O)c1ccc2c(c1)[nH]c1ccc(Cl)cc12 (stereo not drawn) [carprofen] — lower, -0.187
- C=CC1=C(C)c2cc3nc(cc4[nH]c(cc5[nH]c(cc1n2)c(C)c5C=C)c(C)c4CCC(=O)O)C(CCC(=O)O)=C3C [protoporphyrin ix] — lower, -0.146
- N=C(N)c1ccc(N=NNc2ccc(C(=N)N)cc2)cc1 [diminazene aceturate] — lower, -0.217
- Nc1[nH]cnc2ncnc1-2 [adenine] — lower, 0.341
- OC[C@@H](O)[C@H](O)[C@@H](O)[C@H](O)CO [sorbitol] — lower, -0.344
- CC[n+]1c(-c2ccccc2)c2cc(N)ccc2c2ccc(N)cc21 [homidium bromide] — lower, -0.63
- NC(=O)NS(=O)(=O)c1ccc(N)cc1 [sulfacarbamide] — higher, 1.75
- O=C(O)c1ccc(S(=O)(=O)N(Cl)Cl)cc1 [halazone] — lower, -0.554
- O=C(O)c1cc(O)nc(O)n1 [orotic acid] — lower, -0.962
- CC12CCC(=O)C=C1CCC1C2[C@@H](O)CC2(C)C1CC[C@]2(O)C(=O)COP(=O)(O)O (stereo partly drawn) [hydrocortisone sodium phosphate] — lower, -2.38
- Oc1ccc(Cl)c2c1CCC2 [chlorindanol] — lower, 0.0175
- OC[C@@H](O)C(O[C@@H]1O[C@H](CO)[C@H](O)[C@H](O)[C@H]1O)[C@H](O)[C@@H](O)CO (stereo partly drawn) [d-lactitol monohydrate] — lower, 0.0936
- Cc1cc(N)c2ccccc2[n+]1CCCCCCCCCC[n+]1c(C)cc(N)c2ccccc21 [dequalinium chloride] — lower, -0.275
- CN1CCCCC1CCN1c2ccccc2Sc2ccc(S(C)=O)cc21 (stereo not drawn) [mesoridazine besylate] — lower, -0.772
- CCOc1ccc2nc3cc(N)ccc3c(N)c2c1 [ethacridine lactate] — higher, 0.85
- Nc1nc(NC2CC2)c2ncn([C@H]3C=C[C@@H](CO)C3)c2n1 [abacavir sulfate] — lower, 0.347
- CC(C)c1nc(CN(C)C(=O)N[C@H](C(=O)N[C@@H](Cc2ccccc2)C[C@H](O)[C@H](Cc2ccccc2)NC(=O)OCc2cncs2)C(C)C)cs1 [ritonavir] — higher, 0.525
- CCNC1CN(CCCOC)S(=O)(=O)c2sc(S(N)(=O)=O)cc21 (stereo not drawn) [brinzolamide] — lower, 0.305
- CCCCCCCCCCCCCCCCOP(=O)([O-])OCC[N+](C)(C)C [miltefosine] — lower, -0.213
- O=C(O)CCC(=O)OC[C@@H](NC(=O)C(Cl)Cl)[C@H](O)c1ccc([N+](=O)[O-])cc1 [chloramphenicol hemisuccinate] — higher, 0.771
- C[C@]12CC[C@@H]3c4ccc(OS(=O)(=O)O)cc4CC[C@H]3[C@@H]1CCC2=O [estropipate] — lower, 0.288
- O=C(O)CCc1nc(-c2ccccc2)c(-c2ccccc2)o1 [oxaprozin] — lower, -0.197
- CCOC(=O)c1ccc(N)cc1 [benzocaine] — lower, 0.117
- Nc1ccc(S(=O)(=O)Nc2ccc(Cl)nn2)cc1 [sulfachlorpyridazine] — lower, -0.162
- CC(C)(C)CC(C)(C)c1ccc(O)c(Cc2ccc(Cl)cc2Cl)c1 [clofoctol] — lower, 0.306
- CCC1=C(C)CN(C(=O)NCCc2ccc(S(=O)(=O)NC(=O)N[C@H]3CC[C@H](C)CC3)cc2)C1=O [glimepiride] — higher, 0.585
- Nc1ncnc2c1ncn2[C@@H]1O[C@H](CO)[C@@H](O)[C@@H]1O [vidarabine] — higher, 0.608
- CCOc1ccc(NC(C)=O)cc1 [phenacetin] — lower, -0.22
